Results are given in words; binding and its absence hold for the method and conditions named. In cells and extracts the contact can be indirect. A yes stands for co-enrichment or nearness to the bait. Other partners may have been found.
Each substance was assayed against Flag-DDX39B (DExD-box helicase 39B) (UniProt Q13838) (assay: affinity purification with mass spectrometry; Flag-DDX39B immunoprecipitated with anti-Flag magnetic beads overnight at 4 °C, washed 5 times with TBS (150 mM NaCl, 50 mM Tris-HCl pH 7.4); SDS-PAGE gel bands of around 70 kDa and above cut out for mass spectrometry; proteins with at least 4 unique peptides kept).

By UniProt entry, the sequences of proteins in these tests, tags left out. Where a name states a change or a piece, a line headed by the entry shows the natural chain unless it says otherwise.
UniProt Q13838: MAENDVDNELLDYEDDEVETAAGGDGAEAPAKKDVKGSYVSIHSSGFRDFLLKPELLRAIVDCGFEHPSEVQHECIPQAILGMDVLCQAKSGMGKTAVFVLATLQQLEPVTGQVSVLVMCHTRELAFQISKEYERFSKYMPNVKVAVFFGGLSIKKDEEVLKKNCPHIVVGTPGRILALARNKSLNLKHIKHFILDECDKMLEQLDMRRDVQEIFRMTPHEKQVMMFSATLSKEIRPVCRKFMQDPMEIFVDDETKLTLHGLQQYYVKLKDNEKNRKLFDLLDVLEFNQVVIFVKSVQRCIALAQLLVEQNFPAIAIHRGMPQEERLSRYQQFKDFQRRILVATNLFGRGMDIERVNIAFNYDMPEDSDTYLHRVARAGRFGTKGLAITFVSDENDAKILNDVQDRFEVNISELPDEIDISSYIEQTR
UniProt P12814: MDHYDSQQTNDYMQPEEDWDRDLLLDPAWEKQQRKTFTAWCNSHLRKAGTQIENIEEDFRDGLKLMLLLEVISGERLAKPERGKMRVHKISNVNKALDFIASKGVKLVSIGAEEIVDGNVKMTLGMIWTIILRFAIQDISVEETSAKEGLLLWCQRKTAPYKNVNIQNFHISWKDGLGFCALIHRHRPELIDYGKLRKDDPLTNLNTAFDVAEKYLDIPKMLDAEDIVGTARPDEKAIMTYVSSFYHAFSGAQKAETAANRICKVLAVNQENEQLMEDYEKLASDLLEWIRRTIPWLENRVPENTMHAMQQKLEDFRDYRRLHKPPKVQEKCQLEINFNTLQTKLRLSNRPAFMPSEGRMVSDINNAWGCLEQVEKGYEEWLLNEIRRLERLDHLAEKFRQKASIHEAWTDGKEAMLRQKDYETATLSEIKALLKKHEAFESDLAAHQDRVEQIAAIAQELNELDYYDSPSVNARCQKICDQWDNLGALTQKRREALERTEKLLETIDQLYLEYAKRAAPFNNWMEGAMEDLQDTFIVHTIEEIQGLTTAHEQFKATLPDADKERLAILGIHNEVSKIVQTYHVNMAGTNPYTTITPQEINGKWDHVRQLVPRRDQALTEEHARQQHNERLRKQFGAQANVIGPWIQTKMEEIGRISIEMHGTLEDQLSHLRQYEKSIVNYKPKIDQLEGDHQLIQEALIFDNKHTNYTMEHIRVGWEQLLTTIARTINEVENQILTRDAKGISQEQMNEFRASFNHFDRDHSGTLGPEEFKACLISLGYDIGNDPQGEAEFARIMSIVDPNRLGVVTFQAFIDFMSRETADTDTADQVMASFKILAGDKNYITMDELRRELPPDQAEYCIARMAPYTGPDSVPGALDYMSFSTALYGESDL
UniProt O43707: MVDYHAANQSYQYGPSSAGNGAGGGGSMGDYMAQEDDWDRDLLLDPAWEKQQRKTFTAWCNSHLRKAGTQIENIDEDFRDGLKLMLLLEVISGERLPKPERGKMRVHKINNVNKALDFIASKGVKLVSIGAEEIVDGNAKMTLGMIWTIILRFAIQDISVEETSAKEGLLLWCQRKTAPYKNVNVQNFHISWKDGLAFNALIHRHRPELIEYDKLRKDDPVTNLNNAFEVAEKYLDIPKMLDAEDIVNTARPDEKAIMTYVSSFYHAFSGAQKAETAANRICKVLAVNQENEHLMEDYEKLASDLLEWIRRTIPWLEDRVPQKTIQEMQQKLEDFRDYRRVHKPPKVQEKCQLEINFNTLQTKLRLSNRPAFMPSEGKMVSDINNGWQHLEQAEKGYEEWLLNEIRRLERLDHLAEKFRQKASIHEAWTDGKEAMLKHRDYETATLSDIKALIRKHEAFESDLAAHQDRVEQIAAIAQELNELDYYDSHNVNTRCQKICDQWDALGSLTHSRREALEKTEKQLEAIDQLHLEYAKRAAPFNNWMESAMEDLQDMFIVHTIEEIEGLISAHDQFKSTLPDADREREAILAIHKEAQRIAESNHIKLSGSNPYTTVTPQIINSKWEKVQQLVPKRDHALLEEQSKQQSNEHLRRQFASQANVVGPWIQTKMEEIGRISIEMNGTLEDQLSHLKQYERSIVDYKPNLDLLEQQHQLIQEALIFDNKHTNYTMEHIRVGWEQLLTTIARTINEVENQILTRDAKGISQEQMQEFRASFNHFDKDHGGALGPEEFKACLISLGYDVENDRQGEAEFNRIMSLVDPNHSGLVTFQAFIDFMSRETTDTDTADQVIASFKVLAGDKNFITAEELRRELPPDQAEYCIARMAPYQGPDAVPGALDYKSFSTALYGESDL
UniProt P46940: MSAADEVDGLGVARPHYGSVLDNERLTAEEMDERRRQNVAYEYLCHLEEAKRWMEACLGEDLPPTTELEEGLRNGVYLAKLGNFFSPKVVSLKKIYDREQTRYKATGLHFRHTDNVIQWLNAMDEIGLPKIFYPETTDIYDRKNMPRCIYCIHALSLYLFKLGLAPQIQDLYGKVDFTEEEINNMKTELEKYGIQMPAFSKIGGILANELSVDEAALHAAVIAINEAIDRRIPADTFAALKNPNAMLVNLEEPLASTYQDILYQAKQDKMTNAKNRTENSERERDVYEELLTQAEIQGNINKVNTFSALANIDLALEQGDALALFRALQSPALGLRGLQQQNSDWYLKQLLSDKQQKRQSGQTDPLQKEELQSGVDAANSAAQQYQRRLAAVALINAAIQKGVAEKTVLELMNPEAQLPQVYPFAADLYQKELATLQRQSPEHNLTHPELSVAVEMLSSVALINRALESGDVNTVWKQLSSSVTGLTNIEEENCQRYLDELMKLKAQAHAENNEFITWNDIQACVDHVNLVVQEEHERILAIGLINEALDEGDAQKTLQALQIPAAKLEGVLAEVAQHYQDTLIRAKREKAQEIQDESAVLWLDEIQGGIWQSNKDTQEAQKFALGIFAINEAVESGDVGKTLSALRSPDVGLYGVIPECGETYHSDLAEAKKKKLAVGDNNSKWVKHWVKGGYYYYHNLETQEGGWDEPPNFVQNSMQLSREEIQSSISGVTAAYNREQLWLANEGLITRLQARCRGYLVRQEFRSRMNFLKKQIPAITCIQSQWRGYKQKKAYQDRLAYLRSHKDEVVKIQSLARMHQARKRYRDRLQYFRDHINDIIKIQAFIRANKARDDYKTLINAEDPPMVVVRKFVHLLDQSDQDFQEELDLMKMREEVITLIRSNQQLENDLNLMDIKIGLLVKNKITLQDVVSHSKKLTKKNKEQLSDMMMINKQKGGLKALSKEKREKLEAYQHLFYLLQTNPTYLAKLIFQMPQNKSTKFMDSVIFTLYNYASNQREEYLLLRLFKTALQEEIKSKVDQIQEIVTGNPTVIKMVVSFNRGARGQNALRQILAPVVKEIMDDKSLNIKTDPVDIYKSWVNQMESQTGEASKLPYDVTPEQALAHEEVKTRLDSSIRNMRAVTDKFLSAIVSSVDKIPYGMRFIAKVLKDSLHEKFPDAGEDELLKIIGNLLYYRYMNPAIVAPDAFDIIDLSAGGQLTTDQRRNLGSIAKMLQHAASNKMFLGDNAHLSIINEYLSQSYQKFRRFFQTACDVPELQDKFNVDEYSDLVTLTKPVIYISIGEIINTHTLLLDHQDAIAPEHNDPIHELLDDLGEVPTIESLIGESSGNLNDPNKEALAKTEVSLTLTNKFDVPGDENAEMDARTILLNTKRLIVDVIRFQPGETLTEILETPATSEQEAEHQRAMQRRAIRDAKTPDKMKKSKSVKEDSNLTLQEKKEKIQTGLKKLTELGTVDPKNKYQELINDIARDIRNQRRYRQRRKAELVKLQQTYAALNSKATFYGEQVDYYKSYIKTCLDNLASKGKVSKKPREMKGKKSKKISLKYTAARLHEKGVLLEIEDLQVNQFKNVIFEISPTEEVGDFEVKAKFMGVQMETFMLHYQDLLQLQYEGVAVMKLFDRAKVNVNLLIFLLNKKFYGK
UniProt Q13263: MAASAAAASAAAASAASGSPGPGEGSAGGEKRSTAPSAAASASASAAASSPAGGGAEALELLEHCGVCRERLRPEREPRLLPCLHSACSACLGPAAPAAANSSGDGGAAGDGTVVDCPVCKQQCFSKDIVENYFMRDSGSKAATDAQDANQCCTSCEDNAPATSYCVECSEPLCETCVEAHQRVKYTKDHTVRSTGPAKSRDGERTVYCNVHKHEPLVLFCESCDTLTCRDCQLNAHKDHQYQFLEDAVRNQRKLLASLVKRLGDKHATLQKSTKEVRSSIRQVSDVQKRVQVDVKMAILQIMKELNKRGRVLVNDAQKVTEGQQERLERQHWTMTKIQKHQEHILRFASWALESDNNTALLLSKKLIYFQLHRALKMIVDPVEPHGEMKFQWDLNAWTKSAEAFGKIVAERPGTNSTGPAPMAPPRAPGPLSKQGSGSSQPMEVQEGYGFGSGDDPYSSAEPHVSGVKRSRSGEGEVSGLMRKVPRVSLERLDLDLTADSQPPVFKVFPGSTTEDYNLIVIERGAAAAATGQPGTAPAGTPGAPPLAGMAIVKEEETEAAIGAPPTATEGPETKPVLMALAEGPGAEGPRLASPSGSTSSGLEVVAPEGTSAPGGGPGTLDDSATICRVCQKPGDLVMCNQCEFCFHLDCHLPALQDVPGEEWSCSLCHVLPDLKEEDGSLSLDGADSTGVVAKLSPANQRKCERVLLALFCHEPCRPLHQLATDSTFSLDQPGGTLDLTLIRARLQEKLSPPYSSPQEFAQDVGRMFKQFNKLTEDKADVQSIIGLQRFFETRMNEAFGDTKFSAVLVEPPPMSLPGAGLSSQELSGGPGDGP

binding, binds:
ACTN1 (from UniProt P12814 1-892)
ACTN4 (from UniProt O43707 1-911)
IQGAP1 (from UniProt P46940 1-1657)
TRIM28 (tripartite motif-containing 28), endogenous (from UniProt Q13263 1-835)

From publication PMC12263876, “DDX39B K63-linked ubiquitination mediated by TRIM28 promotes NSCLC metastasis by enhancing ECAD lysosomal degradation” (Signal Transduction and Targeted Therapy, 2025)
